The list shows a part of the results. The main result of the screen is listed elsewhere. These columns were measured beside it and carry no call. Compounds called inactive in the main read-out are mostly missing here. Words in brackets tell the shape of the fitted curve; partial curves, single points and poor fits give uncertain potencies.
Experiment: qHTS Assay for Lipid Storage Modulators in Drosophila S3 Cells;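 on cell number change: cells counted by Cell Tracker Red CMTPX staining in the red channel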
Conditions: BODIPY lipid droplet fluorescence, 18-24 h; for cell number change: measured here: cell count max response, cells fed with added oleic acid
Outline: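 Drosophila S3 cells loaded with oleic acid (400 uM, as added) and compounds at several concentrations; lipid droplets imaged by 488-nm laser-scanning cytometry, 500–530 nm intensity and object ratio to cell channel. Percent activity normalized to 20 uM Triacsin C.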

[1] = measured here: lipid fluorescence (Fed channel) AC50, cells fed with added oleic acid
[2] = measured here: cell number channel AC50, cells fed with added oleic acid

Cn1cccc1-c1cc(C(=O)N/N=C/c2ccc(Cl)cc2)[nH]n1
AC50 [1]: 32.6 µM [rising, partial curve, poor fit]

COc1cc(C)ccc1OCc1cc(C(=O)NCCN2CCOCC2)no1
cell number change: 4.95%

COCCOC1CCN(C(=O)c2cc(COc3ccc(-n4cncn4)cc3)on2)CC1
cell number change: 54.5%

CCC(=O)N(Cc1ccc2c(c1)OCO2)Cc1cc2cc(OC)ccc2[nH]c1=O
AC50 [1]: 29.1 µM [falling, single point]

C=CCn1c(COc2cccc3ccc(C)nc23)nnc1SCC(=O)O
cell number change: -30.6% | AC50 [2]: 32.6 µM [falling, single point] | AC50 [1]: 29.1 µM [falling, partial curve]

CCOc1ccccc1NC(=O)Cn1c(C)cc(COC)c(C#N)c1=O
cell number change: 30.5% | AC50 [2]: 0.103 µM [rising, partial curve] | AC50 [1]: 0.0517 µM [rising, partial curve, poor fit]

O=C(NCc1cccnc1)c1ccc(NC(=O)c2ccco2)cc1
cell number change: 6.39% | AC50 [1]: 18.4 µM [rising, partial curve]

COC(=O)C1C(=O)c2c([nH]c(C(=O)OC3CCCC3C)c2C)CC1C (stereo not given)
cell number change: -70% | AC50 [1]: 29.1 µM [falling, single point]

COc1ccc(NC(=O)c2cc3c(Cl)nc4ccccc4c3s2)cc1OC
cell number change: -33.1% | AC50 [2]: 6.51 µM [falling, full curve, poor fit] | AC50 [1]: 0.103 µM [rising, full curve]

C=CCN(CC=C)Cc1nc(N)nc(Nc2ccccc2C)n1
cell number change: -2.57%

CCN(CC(=O)NCc1cccs1)C(=O)COc1ccc(C(C)=O)cc1
cell number change: -6.98% | AC50 [1]: 6.51 µM [rising, partial curve, poor fit]

COc1ccc(-c2nnc(SCc3cc(C)ccc3C)n2N)cc1
cell number change: -27.2% | AC50 [1]: 32.6 µM [falling, single point]

COc1ccc(OCC(=O)Nc2ccncc2)cc1
cell number change: -17.9%

O=C(Oc1cc2oc(=O)c3c(c2cc1Cl)CCCC3)c1ccco1
cell number change: -103% | AC50 [2]: 25.9 µM [falling, partial curve] | AC50 [1]: 0.092 µM [falling, full curve, poor fit]

COCCCNc1nc(N)c([N+](=O)[O-])c(NC2CCCCC2)n1
cell number change: -14.4%

COc1ccc(NC(=O)C2CCN(C(=O)C3CC(=O)N(c4ccc(C)cc4)C3)CC2)c(OC)c1 (stereo not given)
cell number change: -26.7%

COC(=O)c1nnn(-c2nonc2N)c1COc1ccc(C=O)cc1OC
cell number change: 0.0563% | AC50 [1]: 0.164 µM [rising, full curve, poor fit]

COc1ccc(N2C(=O)CSC(c3ccccc3)C2=O)cc1 (stereo not given)
cell number change: -15.1% | AC50 [1]: 0.00461 µM [falling, full curve, poor fit]

C=CCn1c(C(O)c2ccccc2)nc2ccccc21 (stereo not given)
cell number change: 4.38% | AC50 [1]: 4.11 µM [rising, full curve]

CCOc1ccc(NC(=O)CCN2CCN(S(=O)(=O)c3cc(Cl)ccc3OC)CC2)cc1
AC50 [1]: 0.58 µM [rising, single point]

O=C(CSc1ncnc2c1oc1ccccc12)Nc1nc2ccccc2s1
cell number change: -54%

COc1ccc(C(=S)N2CCOCC2)cc1OC(=O)c1ccc([N+](=O)[O-])cc1[N+](=O)[O-]
cell number change: 12.8% | AC50 [1]: 29.1 µM [rising, single point]

Cc1ccc(S(=O)(=O)N2CCCCC2)cc1C(=O)NC1CCCCC1
cell number change: 14.3% | AC50 [1]: 18.4 µM [rising, single point]

Nc1nc(NCC2CCCO2)nc(NCC2CCCO2)c1[N+](=O)[O-] (stereo not given)
cell number change: 3.31% | AC50 [1]: 29.1 µM [rising, single point]

O=S(=O)(NCc1ccco1)c1cccc(S(=O)(=O)N2CCOCC2)c1
cell number change: 9.11% | AC50 [1]: 4.11 µM [falling, single point]

CN(C(=O)c1ccccc1OCc1ccc(F)cc1)c1c(N)n(Cc2ccccc2)c(=O)[nH]c1=O
cell number change: 172% | AC50 [2]: 18.4 µM [rising, partial curve] | AC50 [1]: 5.17 µM [rising, partial curve]

CCOC(=O)c1sc(=NC(=O)C2CC2)n(C)c1C
cell number change: 10.3% | AC50 [2]: 2.59 µM [rising, single point]

CCN(CC(=O)Nc1ccccc1C(F)(F)F)C(=O)CN1C(=O)NC2(CCCC2)C1=O
cell number change: -13.7%

O=C(CN1C(=O)c2ccccc2S1(=O)=O)NCc1ccco1
cell number change: -2.45% | AC50 [2]: 6.51 µM [falling, single point]

CN(Cc1nccs1)C(=O)C1CCC(=O)N(CCc2cccc(F)c2)C1 (stereo not given)
cell number change: 16.8% | AC50 [1]: 20.6 µM [rising, partial curve, poor fit]

COc1cccc(CNC(=O)C2CCCN(S(=O)(=O)c3c(C)[nH]c(=O)[nH]c3=O)C2)c1 (stereo not given)
cell number change: -8.2% | AC50 [1]: 29.1 µM [falling, single point]

CC(C)(C)c1ccc(/C=C/C(=O)Nc2ccncc2)cc1
cell number change: -38.4% | AC50 [2]: 32.6 µM [falling, single point]

Cc1ccc(S(=O)(=O)/N=C2/NC(=O)/C(=C/c3ccc(Br)o3)S2)cc1
cell number change: 250% | AC50 [2]: 20.6 µM [rising, single point] | AC50 [1]: 16.4 µM [rising, single point]

Cc1csc(NC(=O)Cc2nn(C)c(=O)c3ccccc23)n1
cell number change: -65.3% | AC50 [1]: 1.3 µM [rising, partial curve]

CC(=O)c1ccc(NC(=S)NC(=O)Cc2ccc(Cl)cc2)cc1
cell number change: 58.5% | AC50 [2]: 14.6 µM [rising, partial curve]

Cc1ccc(C(=O)Nc2ncc(Cc3ccc(F)cc3)s2)o1
cell number change: -25.9%

CCCC(=O)Nc1ccc2c(c1)nc(CN1CCCCC1)n2C
cell number change: 1.32%

Cc1ccn2cc(-c3cccc(NC(=O)c4ccccc4)c3)nc2c1
cell number change: 7.21% | AC50 [1]: 0.326 µM [rising, full curve]

CC(NC(=O)c1ccc(S(=O)(=O)NCc2ccco2)cc1)c1ccc(F)cc1 (stereo not given)
cell number change: -18.5% | AC50 [1]: 29.1 µM [falling, single point]

CC(NS(=O)(=O)c1ccc(Cl)c(Cl)c1)C(=O)OCC(=O)Nc1ccc2c(c1)OCO2 (stereo not given)
cell number change: -41.2% | AC50 [2]: 29.1 µM [falling, single point]

COc1ccc(C(C)=O)cc1COc1cccnc1[N+](=O)[O-]
cell number change: -7.89% | AC50 [1]: 0.251 µM [falling, full curve, poor fit]

O=C(c1ccccc1)N(C1=NCCCCS1)c1ccccc1
cell number change: 8.68% | AC50 [1]: 0.13 µM [rising, partial curve, poor fit]

C/C(=N\NC(=O)c1ccccc1F)c1ccc(C#N)cc1
cell number change: 96%

COc1cccc(CNC(=O)CC2C(=O)NCCN2Cc2ccoc2)c1OC (stereo not given)
cell number change: -9.98% | AC50 [1]: 1.3 µM [falling, full curve]

CCOc1ccccc1/C=N/n1c(C2CCCCC2)n[nH]c1=S
cell number change: 11.1%

CCOC(=O)c1ccc(N2C(=O)CC(N(Cc3ccc4c(c3)OCO4)C(=O)Nc3ccccc3)C2=O)cc1 (stereo not given)
cell number change: 25.7% | AC50 [1]: 0.116 µM [rising, full curve, poor fit]

COc1cc(-c2nnc(SCc3cc(=O)oc4cc(C)ccc34)o2)cc(OC)c1OC
cell number change: -19.7%

CCn1ccc(C(=O)NC2=NCCS2)n1
AC50 [1]: 0.00461 µM [falling, full curve, poor fit]

O=C(NC1CCCc2ccccc21)c1ccccn1 (stereo not given)
AC50 [1]: 10.3 µM [rising, partial curve]

COc1cccc(OC)c1C(=O)N1CCN(S(=O)(=O)c2ccc(C)cc2)CC1
cell number change: 0.489% | AC50 [1]: 0.92 µM [falling, full curve]

COc1ccc(-n2cnnc2SCC(=O)Nc2ccccc2F)cc1
cell number change: 36.9% | AC50 [2]: 16.4 µM [rising, single point] | AC50 [1]: 29.1 µM [rising, single point]

CN1/C(=C/C(=O)CSc2ccccc2C(=O)O)C(C)(C)c2ccccc21
cell number change: 1.08% | AC50 [1]: 29.1 µM [falling, single point]

NCC12CC3CC(CC(O)(C3)C1)C2
cell number change: -89.5% | AC50 [2]: 29.1 µM [falling, single point] | AC50 [1]: 2.06 µM [falling, full curve, poor fit]

CCN(CC)CCNC(=O)CS(=O)Cc1nc(-c2ccc(Cl)cc2)oc1C (stereo not given)
cell number change: 15% | AC50 [1]: 1.84 µM [rising, single point]

CCOc1cc(CNC)ccc1OCC(=O)NC(C)(C)C
cell number change: 5.1% | AC50 [1]: 0.58 µM [rising, single point]

Cc1ccc(NC(=O)Cc2nc(CN(C)CC(=O)Nc3ccc(C)cc3)cs2)cc1
cell number change: 40.3% | AC50 [2]: 16.4 µM [rising, single point]

COc1ccc(NC2CCCN(C(=O)CN3C(=O)c4ccccc4C3=O)C2)cc1OC (stereo not given)
AC50 [1]: 23.1 µM [falling, single point]

COC(=O)c1ccc(C(=O)Nc2ccc3nc(-c4ccncc4)[nH]c3c2)cc1
cell number change: 19.4% | AC50 [1]: 32.6 µM [rising, single point]

O=C(/C=C/c1cccc(Cl)c1)N1CCC(Cc2ccccc2)CC1
cell number change: 33.8% | AC50 [2]: 11.6 µM [rising, single point]

COc1cc2ccccc2cc1C(=O)OCC(=O)N(CC(C)C)c1c(N)n(Cc2ccccc2)c(=O)[nH]c1=O
cell number change: 25% | AC50 [2]: 0.231 µM [rising, full curve, poor fit] | AC50 [1]: 0.13 µM [rising, full curve, poor fit]

Cc1cc(Cl)cc(Br)c1OCCNCC(C)O (stereo not given)
cell number change: 0.546% | AC50 [1]: 29.1 µM [falling, single point]

O=C1CC(N2CCC(c3nc4ccccc4o3)CC2)C(=O)N1c1ccc(Cl)c(C(F)(F)F)c1 (stereo not given)
cell number change: -37.7% | AC50 [2]: 18.4 µM [falling, partial curve] | AC50 [1]: 29.1 µM [falling, single point]

Reference: PubChem BioAssay AID2685 (National Center for Advancing Translational Sciences (NCATS), 2010)
